Test results as given in paper PMC12596195, “Mei5–Sae3 stabilizes both active and inactive forms of Dmc1 filaments independently of its impact on ATP hydrolysis” (Nucleic Acids Research, 2025).
Changes are numbered by the printed parent chain. For part of these data: Negatives hold for the conditions tested. For part of these data: The comparison behind a weaker result is the experiment's own reference, which may not be listed here. For part of these data: For at least one entry, the source does not settle the construct or the ends of the probe. For part of these data: Where a protein sequence is shown, tags need not be part of it.

Chains of the proteins cited; added tags and fusions are not shown. Chains listed by the source or under a name are the forms on record and can include a tag or linker.
Dmc1-E157D + Mei5-Sae3, one chain, as listed by the source E157D, chain 2 of 2: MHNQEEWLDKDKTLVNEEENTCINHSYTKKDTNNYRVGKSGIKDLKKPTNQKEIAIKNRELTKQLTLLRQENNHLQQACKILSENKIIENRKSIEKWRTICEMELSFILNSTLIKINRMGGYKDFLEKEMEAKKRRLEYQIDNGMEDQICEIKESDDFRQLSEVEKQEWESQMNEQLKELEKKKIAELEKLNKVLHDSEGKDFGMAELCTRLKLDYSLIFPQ

Columns and labels:
Experiment in all cases: fluorescence polarization
[1] = target: T1, Dmc1-E157D (Saccharomyces cerevisiae) (UniProt P25453); details: ATP, 70 uM Ca2+, FP: 25 mM HEPES pH 7.5, 1 mM Mg2+, 1 mM ATP, 1 mM DTT, 50 mM NaCl (100 mM in Fig. 3), 100 ug/ml BSA, 0.02% NP-40, 70 uM Ca2+ or as indicated, 3 nM 84-nt ssDNA, recombinant protein, residues 1-334, protein details: N-terminal 6xHis, label: 5' Alexa Fluor 488, single-stranded DNA
T1 sequence (looked up): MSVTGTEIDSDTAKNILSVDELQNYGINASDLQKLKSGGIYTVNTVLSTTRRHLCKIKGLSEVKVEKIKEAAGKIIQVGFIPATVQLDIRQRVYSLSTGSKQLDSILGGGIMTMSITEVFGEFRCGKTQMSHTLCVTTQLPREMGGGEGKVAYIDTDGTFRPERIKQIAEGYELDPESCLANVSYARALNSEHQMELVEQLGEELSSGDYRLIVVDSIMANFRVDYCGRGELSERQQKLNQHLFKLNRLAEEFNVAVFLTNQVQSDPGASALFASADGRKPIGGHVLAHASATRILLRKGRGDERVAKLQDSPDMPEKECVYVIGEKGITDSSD

[2] = target: T2, Dmc1-WT (Saccharomyces cerevisiae) (UniProt P25453); details: no nucleotide cofactor; FP: 25 mM HEPES pH 7.5, 1 mM Mg2+, 1 mM ATP, 1 mM DTT, 50 mM NaCl (100 mM in Fig. 3), 100 ug/ml BSA, 0.02% NP-40, 70 uM Ca2+ or as indicated, 3 nM 84-nt ssDNA; recombinant protein; residues 1-334; protein details: N-terminal 6xHis; label: 5' Alexa Fluor 488; single-stranded DNA
T2 sequence (looked up): T1 sequence (looked up) with D157E

Dmc1-E157D + Mei5-Sae3 = details: ATP, 100 mM NaCl, 400 nM Mei5-Sae3: no impact on E157D binding; FP: 25 mM HEPES pH 7.5, 1 mM Mg2+, 1 mM ATP, 1 mM DTT, 50 mM NaCl (100 mM in Fig. 3), 100 ug/ml BSA, 0.02% NP-40, 70 uM Ca2+ or as indicated, 3 nM 84-nt ssDNA; recombinant protein; protein details: N-terminal 6xHis,N-terminal 6xHis on Mei5; label: 5' Alexa Fluor 488; single-stranded DNA
[3] = tested on: Mei5-Sae3 (Saccharomyces cerevisiae); details: 400 nM Mei5-Sae3, NaCl above 100 mM; FP: 25 mM HEPES pH 7.5, 1 mM Mg2+, 1 mM ATP, 1 mM DTT, 50 mM NaCl (100 mM in Fig. 3), 100 ug/ml BSA, 0.02% NP-40, 70 uM Ca2+ or as indicated, 3 nM 84-nt ssDNA; recombinant protein; protein details: N-terminal 6xHis on Mei5; label: 5' Alexa Fluor 488; single-stranded DNA
Dmc1-WT + Mei5-Sae3 = details: no nucleotide cofactor, 400 nM Mei5-Sae3: affinity unchanged; FP: 25 mM HEPES pH 7.5, 1 mM Mg2+, 1 mM ATP, 1 mM DTT, 50 mM NaCl (100 mM in Fig. 3), 100 ug/ml BSA, 0.02% NP-40, 70 uM Ca2+ or as indicated, 3 nM 84-nt ssDNA; recombinant protein; protein details: N-terminal 6xHis,N-terminal 6xHis on Mei5; label: 5' Alexa Fluor 488; single-stranded DNA

In the case of “GGTAGCGGTTGGGTGAGTGGTGGGGAGGGTCGGGAGGTGGCGTAGAAACATGATAGGAATGTGAATGAATGAAGTACAAGTAAA [84 nt-ssDNA]”, the Kd ([1]; 100 mM NaCl) is reported as 2.2 µM, the binding result ([1]; 37 C) is reported as “binds more weakly” and the binding result [2] is reported as “binds more weakly”. “GGTAGCGGTTGGGTGAGTGGTGGGGAGGGTCGGGAGGTGGCGTAGAAACATGATAGGAATGTGAATGAATGAAGTACAAGTAAA [84 nt-ssDNA]”: binds more weakly (Dmc1-E157D + Mei5-Sae3); no binding [3]; binds more weakly (Dmc1-WT + Mei5-Sae3).
